# The entries are a selection whose mix differs from that of the whole data set. At the low end of the ranking the order means little.
# By UniProt entry, the sequences of proteins in these tests, tags left out. Where a name states a change or a piece, a line headed by the entry shows the natural chain unless it says otherwise.
# UniProt P41161: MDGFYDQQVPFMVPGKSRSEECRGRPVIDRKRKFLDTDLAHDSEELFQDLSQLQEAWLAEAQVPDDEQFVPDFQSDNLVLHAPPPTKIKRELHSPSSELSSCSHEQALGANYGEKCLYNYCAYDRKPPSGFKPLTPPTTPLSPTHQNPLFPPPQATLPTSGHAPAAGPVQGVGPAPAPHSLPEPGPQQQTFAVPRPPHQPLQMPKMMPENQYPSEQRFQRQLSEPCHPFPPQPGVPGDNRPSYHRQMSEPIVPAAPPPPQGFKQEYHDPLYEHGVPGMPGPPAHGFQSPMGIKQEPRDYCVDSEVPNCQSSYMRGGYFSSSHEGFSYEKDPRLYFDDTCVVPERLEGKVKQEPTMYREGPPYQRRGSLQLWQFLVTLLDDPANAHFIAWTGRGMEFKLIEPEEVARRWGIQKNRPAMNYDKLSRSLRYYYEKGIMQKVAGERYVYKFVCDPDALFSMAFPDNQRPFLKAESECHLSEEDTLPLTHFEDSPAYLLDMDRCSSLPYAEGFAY
# Target: ETV5 (UniProt P41161)
# Test: DAPPL (digital affinity profiling via proximity ligation, sequencing)
# Details: 10 mM Tris-HCl pH 7.5, 50 mM NaCl, 1 mM DTT, 4% glycerol, room temperature, 30 min; GST-TFs on glutathione beads, 16-mer random dsDNA library, 0.1% …; high values mean tight binding; double strand, one strand shown; scale: fold enrichment (6-mer frequency, TF over GST control)
row,Sequence,binding signal
1,CTCACG,1.4
2,ATTAAA,1.2
3,GCAAAT,1.1
4,CCCGCT,1.32
5,TGGGCT,1.4
6,TTTCTA,1.37
7,TCTTTT,1.4
8,TTAATC,1.23
9,GGAAAT,3.05
10,CATTCT,1.28
11,GCGCCT,1.07
12,TGTTTC,1.83
13,TGCTAG,1.3
14,CTCTCG,1.32
15,ATCCGG,2.87
16,ACGGAT,1.32
17,ATCTAT,1.15
18,CGATGT,1.1
19,GCGCTT,1.29
20,TACCGG,1.68

row,Sequence,binding signal
1,TGCATG,1.15
2,GTTCAC,1.2
3,ACAGCC,0.998
4,AACCAC,1.17
5,TGAATA,1.13
6,CCCCCC,1.09
7,CTACCC,1.28
8,CCACTG,1.15
9,CCTGCC,1.34
10,AAATGC,1.34
11,CTCGGC,1.41
12,TGTACC,1.4
13,TGGCAT,1.13
14,ATAAAA,1.12
15,AAACTT,1.22
16,CATGTT,1.03
17,AATCAC,1.14
18,CTTAGC,1.18
19,TATTTA,1.47

# A section taken from the entries so far:
row,Sequence,binding signal
12,TGTACC,1.4
13,TGGCAT,1.13
14,ATAAAA,1.12
